Results: publication PMC11430619
No constants are given. Whether binding was seen depends on the method and setting. Binding seen in cells or lysates may run through a third protein. Here binding means that the protein was enriched with, or labelled near, the bait; the list need not be complete. A no says only that the protein was not detected with the bait. Sequences can lack the tags named with a protein.

Sequences of proteins named here, by UniProt entry; tags and fusion partners are left off. Residues count along the entry.
UniProt Q8JZU2, residues 14-311: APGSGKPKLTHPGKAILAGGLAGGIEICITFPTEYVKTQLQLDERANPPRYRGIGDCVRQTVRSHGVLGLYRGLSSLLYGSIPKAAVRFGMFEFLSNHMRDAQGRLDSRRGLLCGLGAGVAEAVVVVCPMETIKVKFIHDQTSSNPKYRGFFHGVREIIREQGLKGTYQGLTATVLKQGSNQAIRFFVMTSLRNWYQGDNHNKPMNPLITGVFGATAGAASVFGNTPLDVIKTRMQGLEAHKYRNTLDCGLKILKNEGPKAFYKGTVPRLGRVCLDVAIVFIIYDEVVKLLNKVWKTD

T1: recombinant His6-tagged human SIRT2 protein (human) (UniProt Q8IXJ6)
T1 sequence: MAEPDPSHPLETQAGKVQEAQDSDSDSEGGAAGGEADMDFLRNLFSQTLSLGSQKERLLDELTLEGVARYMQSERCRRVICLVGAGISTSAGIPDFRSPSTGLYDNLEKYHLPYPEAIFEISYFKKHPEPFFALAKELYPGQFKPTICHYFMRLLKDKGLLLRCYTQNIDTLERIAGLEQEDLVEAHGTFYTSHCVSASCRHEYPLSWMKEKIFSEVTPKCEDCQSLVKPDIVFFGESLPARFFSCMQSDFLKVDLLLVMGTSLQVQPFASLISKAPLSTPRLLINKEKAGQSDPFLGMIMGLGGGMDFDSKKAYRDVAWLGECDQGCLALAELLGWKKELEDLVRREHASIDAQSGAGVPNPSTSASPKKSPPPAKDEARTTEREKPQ

B1: Slc25a5 (protein, UniProt P51881 1-298)
chain: MTDAAVSFAKDFLAGGVAAAISKTAVAPIERVKLLLQVQHASKQITADKQYKGIIDCVVRIPKEQGVLSFWRGNLANVIRYFPTQALNFAFKDKYKQIFLGGVDKRTQFWRYFAGNLASGGAAGATSLCFVYPLDFARTRLAADVGKAGAEREFKGLGDCLVKIYKSDGIKGLYQGFNVSVQGIIIYRAAYFGIYDTAKGMLPDPKNTHIFISWMIAQSVTAVAGLTSYPFDTVRRRMMMQSGRKGTDIMYTGTLDCWRKIARDEGSKAFFKGAWSNVLRGMGGAFVLVLYDEIKKYT
B2: Slc25a13 (protein, UniProt Q9QXX4 1-676)
chain: MAAAKVALTKRADPAELKAIFLKYASIEKNGEFFMSPHDFVTRYLNIFGESQPNPKTVELLSGVVDQTKDGLISFQEFVAFESVLCAPDALFMVAFQLFDKAGKGEVTFEDVKQIFGQTTIHQHIPFNWDSEFVQLHFGKERKRHLTYAEFTQFLLEIQLEHAKQAFVQRDNAKTGKVSAIDFRDIMVTIRPHVLTPFVEECLVAAAGGTRSHQVSFSYFNGFNSLLNNMELIRKIYSTLAGNRKDVEVTKEEFALAAQKFGQVTPMEVDILFQLADLYEPRGRMTLADIERIAPLEEGMLPFNLAEAQRQQKASGDAARPFLLQLAESAYRFGLGSIAGAVGATAVYPIDLVKTRMQNQRSTGSFVGELMYKNSFDCFKKVLRYEGFFGLYRGLLPQLLGVAPEKAIKLTVNDFVRDKFMHKDGSVPLLAEIFAGGCAGGSQVIFTNPLEIVKIRLQVAGEITTGPRVSALSVVRDLGFFGIYKGAKACFLRDIPFSAIYFPCYAHVKASFANEDGQVSPGSLLLAGAIAGMPAASLVTPADVIKTRLQVAARAGQTTYNGVTDCFRKILREEGPKALWKGVAARVFRSSPQFGVTLLTYELLQRWFYVDFGGVKPVGSEPVPKSRITLPAPNPDHVGGYKLAVATFAGIENKFGLYLPLFKPSASTSKVTAGDS
B3: Slc25a42 (protein, UniProt Q8R0Y8 1-318)
chain: MGNGVQEGSVRLREDAEAVLAGAVSSKRDHRQVLSSLLSGALAGALAKTAVAPLDRTKIIFQVSSKRFSAKEAFRLLYFTYLNEGFLSLWRGNSATMVRVIPYAAIQFSAHEEYKRILGHYYGFRGEALPPWPRLLAGALAGTTAASLTYPLDLVRARMAVTPKEMYSNIFHVFIRISREEGLKTLYFGFTPTVLGVIPYAGLSFFTYESLKSLHREYSGRPQPYPFERMVFGACAGLIGQSASYPLDVVRRRMQTAGVTGHQHGSILSTLRSIVREEGAVRGLYKGLSMNWLKGPIAVGISFTTFDLMQILLRRLQS

Molecular target: T1, recombinant His6-tagged human SIRT2 protein (human)
Experiment: affinity purification with mass spectrometry; 1 mg Sirt2-/- liver homogenate in NP1 buffer (1% nonidet P-40, 300 mM NaCl, 50 mM Tris-HCl; protease inhibitors, NAM, TSA), pre-cleared with anti-His6, incubated with 20 ug rSIRT2-His6 at 37 C for 30 min; captured with anti-His6 on Protein A/G agarose overnight at 4 C, washed 3 times; gel bands identified by mass spectrometry; only the target purified

How did the binding turn out when Slc25a1 (from UniProt Q8JZU2 14-311) was run?
The binding was “binds”.

For B1, which binding is on record?
Its binding is “binds”.

Which binding does the source give for B2 here?
Its binding is “binds”.

Which binding does the source give for B3 here?
The binding was “no binding”.
